Measured values reported in patent US20090312380A1, “NOVEL COMPOSITIONS AND METHODS” (priority 2006, published 2009).

Columns and labels:
[1] = Water surface area from GVS data, Excess Surface Work (ESW) model; assay type: physicochemical
Protocol: The xy-data pairs used for the sorption isotherms (mRH, RH-levels) can also be used for a different approach to describe the sorption isotherm. Here, the change in chemical potential Δμ for the sorption process at each relative humidity (and at temperature T) is calculated:
with: R=Universal Gas Constant • T=Temperature • p=water partial pressure at humidity RH and temperature T • ps=water vapour saturation pressure at temperature T
Based on the change in chemical potential Δμ, an energetic term φ can be calculated for each relative humidity, termed excess surface work (ESW) according to J. Adolphs and M. J. Setzer, Journal of Colloid and Interface Science, vol. 180, pp. 70-76, 1996:
with: Φ=excess surface work • Δμ=change in chemical potential • nads=number of moles of water adsorbed in equilibrium at humidity RH
A plot of Φ/RT vs. nads can then be generated, to allow the value of nads at the minimum value of Φ/RT to be deduced. This value of nads corresponds to nmono.
The calculated monolayer coverage nmono obtained from the application of the gas sorption models to GVS data can be re-calculated to water surface area Awater, taking into account the mean cross sectional area aH2O occupied by one water molecule upon adsorption:
with: Awater=water surface area [m^2/g] • aH2O mean cross sectional area of one water molecule adsorbed 10^−19 m^2/molecule • nmono=apparent amount adsorbed in the monolayer [mol] • NL=Lochschmidt number=6×10^23 molecules/mol • mdry (sample)=dry mass of sample [g]
Likewise, the determination of the ESW water surface area is illustrated for sample A as follows.
A plot of Φ/RT versus the change in mass for sample A was then generated (see FIG. 3). From this, it could be deduced that the minimum value of Φ/RT corresponded to a change in mass of 0.0369 mg, the apparent monolayer amount. This is turn equated to a WSA of 6.65 m^2/g, using equation (A4) above, wherein mdry=18.57 mg.

[2] = Water surface area from GVS data, BET model; assay type: physicochemical; settings: p/ps versus [p/ps]/[n(1−p/ps)], FIG. 2
Source text: The multilayer sorption model according to Brunauer, Emmet and Teller Journal of the American Chemical Society, vol. 60, pp. 309, 1938) is described as follows:
with: n=number of moles adsorbed at p/p, (=RH/100) • nmono=apparent number of moles adsorbed in monolayer • p/ps=gas partial pressure (=RH/100 in the GVS experiments) • C=BET constant (measure for the strength of the sorption interaction)
From the sorption kinetics, the equilibrium weight changes at the end of each RH stage are extracted to compile xy-data pairs (RH vs. adsorbed amount).
From this, a plot of [p/ps]/[n(1−p/ps)] versus p/ps should give a linear correlation with intercept b=1/[C(nmono)] and slope m=b(C−1). […]
The calculated monolayer coverage nmono obtained from the application of the gas sorption models to GVS data can be re-calculated to water surface area Awater, taking into account the mean cross sectional area aH2O occupied by one water molecule upon adsorption: […]
The determination of the BET water surface area is illustrated for sample A as follows. From the relative humidity data and the mass difference, p/ps and [p/ps]/[n(1−p/ps)] were calculated to give the values shown in Table 4.
A plot of p/ps versus [p/ps]/[n(1−p/ps)] was then generated (see FIG. 2) allowing the slope (m=26.726) and the intercept (b=3.8219) to be calculated. […]

With `CCCCC1=NC2(CCCC2)C(=O)N1Cc1ccc(-c2ccccc2-c2nnn[nH]2)cc1` [Sample A, irbesartan] the “Φ/RT (excess surface work)” value ([1]; RH 0.33 %) was −0.1477, the “Φ/RT (excess surface work)” value ([1]; RH 4.98 %) was −0.1777 and the “Φ/RT (excess surface work)” value ([1]; RH 10.01 %) was −0.2057. For the same molecule, the “Φ/RT (excess surface work)” value ([1]; RH 15.00 %) was −0.2237, the “Φ/RT (excess surface work)” value ([1]; RH 19.99 %) was −0.2297 and the “Φ/RT (excess surface work)” value ([1]; RH 25.02 %) was −0.2387. The “Φ/RT (excess surface work)” value ([1]; RH 30.00 %) was −0.2392, the “Φ/RT (excess surface work)” value ([1]; RH 34.98 %) was −0.2319 and the “Φ/RT (excess surface work)” value ([1]; RH 40.02 %) was −0.2233. The “Φ/RT (excess surface work)” value ([1]; RH 49.98 %) was −0.2013, the “Φ/RT (excess surface work)” value ([1]; RH 60.00 %) was −0.1733 and the “Φ/RT (excess surface work)” value ([1]; RH 70.02 %) was −0.1374. For the same molecule, the “Φ/RT (excess surface work)” value ([1]; RH 79.99 %) was −0.0976, the “Φ/RT (excess surface work)” value ([1]; RH 90.01 %) was −0.05423 and the “Φ/RT (excess surface work)” value ([1]; RH 93.03 %) was −0.03781. For the same molecule, the “intercept b of BET plot” value [2] was 3.8219 and the “slope m of BET plot” value [2] was 26.726.
